Among the data in article PMC7819943, “Rice protein-binding microarrays: a tool to detect cis-acting elements near promoter regions in rice” are binding signal values, retold here.

Protein sequences, listed by entry. Tags and fused reporters are not part of them.
UniProt Q0JBA9, entry or part of it: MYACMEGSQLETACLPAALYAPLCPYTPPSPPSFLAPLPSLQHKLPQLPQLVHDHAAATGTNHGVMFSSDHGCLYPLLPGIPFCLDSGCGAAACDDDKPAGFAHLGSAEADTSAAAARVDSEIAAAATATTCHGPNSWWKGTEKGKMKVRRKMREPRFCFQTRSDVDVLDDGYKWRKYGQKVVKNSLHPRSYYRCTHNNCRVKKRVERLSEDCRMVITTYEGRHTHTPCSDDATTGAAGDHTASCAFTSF

This is one part of the list.

This experiment concerns the target OsWRKY34 (Oryza sativa, UniProt Q0JBA9 1-250). The experiment is described as follows: protein-binding microarray (RPBM); PBS, 2% BSA, 51.3 ng/ul salmon testes DNA, 50 uM zinc acetate, 200 nM TF, 25 C, 1 h; high values mean tight binding. As to conditions: protein: recombinant; tags: N-terminal polyhistidine and DsRed monomer fusion (pET32a); label: CyDye5-dUTP incorporated in the synthesized complementary strand; 3' TTTTT single-stranded linker to array surface; dsDNA, one strand shown. In short, it runs like this: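 In PBS with 2% BSA, salmon testes DNA and 50 µM zinc acetate, 200 nM protein was incubated on a custom Agilent array at 25 °C for 1 h and then washed off. The array had been made double-stranded by primer extension with Cy5-dUTP and blocked with 2% BSA. The proteins were transcription factors fused N-terminally to polyhistidine and DsRed, expressed in E. coli BL21-CodonPlus and purified on Ni–NTA. The binding signal is per-feature fluorescence intensity (arbitrary units) from an Axon 4000B scanner.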
As to “GATTTAGCATCTATCTCTTTCATGCGTTACACACTTTTCACGGAGTCACCTAGTGCAG”, the binding signal is 12600 fluorescence intensity (a.u.).
For the sequence “ATTACTACTGCCTCTATGGCTCTATCCCAATTAATCATACCGGAGTCACCTAGTGCAG”, the binding signal is 8890 fluorescence intensity (a.u.).
In the case of “CCTACCATCTCTACAAGGTATATTAGCAGTTAGTACATTTCGGAGTCACCTAGTGCAG”, the binding signal was 9770 fluorescence intensity (a.u.).
On to “GCGATTGAAAAGCTAGCCATCGCTCCGTCCTGCCGTTCGTCGGAGTCACCTAGTGCAG”, for which the binding signal was 9000 fluorescence intensity (a.u.).
The same measure for “ACCTTATTGGGGAGCTTTACAGCCTCATATTTTTCTTATTCGGAGTCACCTAGTGCAG”: 8140 fluorescence intensity (a.u.); for “CTTGCTTGCTGCTATGGCCATGCCTAATGTGTTGTCGCACCGGAGTCACCTAGTGCAG”: 11100 fluorescence intensity (a.u.).
Turning to “GGTGTTTGGATCCAGAGACTTAACTTTAGTCTCTGTATTTCGGAGTCACCTAGTGCAG”, the binding signal was 8550 fluorescence intensity (a.u.).
In the case of “CTCCCTACACAAGACACCTTGAGATTTCTTATGTCACTTTCGGAGTCACCTAGTGCAG”, the binding signal is 9740 fluorescence intensity (a.u.).
As to “AATCACGTCTCAACTTTCTGTCTATCACAATCAGTGTTCTCGGAGTCACCTAGTGCAG”, the binding signal is 9630 fluorescence intensity (a.u.).
Turning to “CCTTTTCCCTTCTGTGTTTCTCGGCACGACCAACTGTTGCCGGAGTCACCTAGTGCAG”, the binding signal is 10200 fluorescence intensity (a.u.).
With “AATATTATTTGTACTTATTTTGTCGGCCTAATTGATGTACCGGAGTCACCTAGTGCAG”, the binding signal is 9100 fluorescence intensity (a.u.).
“GATTCTATACTTTTATTTAACTTCTGCTGATGCCGAGCGGCGGAGTCACCTAGTGCAG”: the binding signal was 8100 fluorescence intensity (a.u.).
As for “ATCGGGTCATATTCTCGTGTACATCTACTAGCACAACATTCGGAGTCACCTAGTGCAG”, the binding signal is 13200 fluorescence intensity (a.u.).
Take “GTTCTTATCCTCCTCTGCCAGCAGTGACTCACCTCGCCACCGGAGTCACCTAGTGCAG”: the binding signal was 10700 fluorescence intensity (a.u.).
Regarding “TTTACTCGGCCATCACATGGATCTTGGGCTCAGCAATATTCGGAGTCACCTAGTGCAG”, the binding signal is 8480 fluorescence intensity (a.u.).
With “GGATGGGATGGGATCGGATCGGCGCAGGGCCAAGGCCCGACGGAGTCACCTAGTGCAG”, the binding signal was 8940 fluorescence intensity (a.u.).
Regarding “CAAGGGGTGGAGGGTCGCTGGCGATTTCTTAAGAAATCCGCGGAGTCACCTAGTGCAG”, the binding signal is 8980 fluorescence intensity (a.u.).
For “CTTTGGCTTCTTGCCTACCGCGTTCTTGGTGATCGTTGGTCGGAGTCACCTAGTGCAG” the value was 8270 fluorescence intensity (a.u.); for “TTGCTCTTGCAGTCTGGCTGTTGCTGCTGTACACACTAGACGGAGTCACCTAGTGCAG”, 8070 fluorescence intensity (a.u.).
For “TTTGGCCCGTTTCCTTCCGTTTTCATGCTGGTCTCGAGTGCGGAGTCACCTAGTGCAG” the value was 9110 fluorescence intensity (a.u.); for “CCCACCTCCACCGCGCCCACGAATCCATTCCATTCCATTCCGGAGTCACCTAGTGCAG”, 10800 fluorescence intensity (a.u.).
The same measure for “GATTATCCTCCTTTCCAGTTTCCACTGTTGCCGCTGGGGCCGGAGTCACCTAGTGCAG”: 9940 fluorescence intensity (a.u.).
In the case of “TGGTCCTTGATAATTTGTTGGTCTTGTAGCGTGGGTGTTTCGGAGTCACCTAGTGCAG”, the binding signal is 8820 fluorescence intensity (a.u.).
For the sequence “TGCTTGTGAAATTGTTGTGCATTGAAGTTGGTTTCATTTTCGGAGTCACCTAGTGCAG”, the binding signal is 10800 fluorescence intensity (a.u.).
For the sequence “TATTGATTTATGTTTTTTAGGTTGTTGCTGATTATACATACGGAGTCACCTAGTGCAG”, the binding signal was 10400 fluorescence intensity (a.u.).
For “CACGCGCGCACTCGTCTCGCCGCGTCCACACCCATCGGCTCGGAGTCACCTAGTGCAG”, the binding signal was 8920 fluorescence intensity (a.u.).
Turning to “TCCTGATCGGCCGGTTCGTCGTTTTCATCCGCGACTCCGACGGAGTCACCTAGTGCAG”, the binding signal is 8510 fluorescence intensity (a.u.).
Consider “CAACATGCTATACAATGATTTTTTTTTTTCATTTTTAAATCGGAGTCACCTAGTGCAG”, for which the binding signal is 8830 fluorescence intensity (a.u.).
For “CACCGTTTCCTTCTCTCTTGTCCTCAAGCTGTCGTTGGGTCGGAGTCACCTAGTGCAG”, the binding signal is 9280 fluorescence intensity (a.u.).
Turning to “CATTAATTCCAACATATAGTACTCCGCCATTTTGACTCGCCGGAGTCACCTAGTGCAG”, the binding signal is 8640 fluorescence intensity (a.u.).
Turning to “ATCACAGTGTTCCTGCCTGATGATCCCTCACCCAGATGACCGGAGTCACCTAGTGCAG”, the binding signal is 8470 fluorescence intensity (a.u.).
“CTTTGTTTGCGCTGGTAGCCGCCGCCGTGACATGCGCTCACGGAGTCACCTAGTGCAG”: the binding signal is 9060 fluorescence intensity (a.u.).
Take “TCCATTTCTTGCGCTTCTTGGTTTTGTCTGGGAACTATTGCGGAGTCACCTAGTGCAG”: the binding signal was 10600 fluorescence intensity (a.u.).
Consider “TTTCTTTCCGATTGCTTCCGTTCCCAGTGACTTATATTATCGGAGTCACCTAGTGCAG”, for which the binding signal was 8620 fluorescence intensity (a.u.).
With “GCCGTTGCCACTAATCCGCCTGGCCTTCGCGCTAGCCTTCCGGAGTCACCTAGTGCAG”, the binding signal was 8500 fluorescence intensity (a.u.).
The same measure for “ACTCTTGTCCTTACACCTCCAGTAAAAGAAGTTAGCTAATCGGAGTCACCTAGTGCAG”: 8500 fluorescence intensity (a.u.); for “CAACCGTCTCCACTTCCCTCCCCACCGCGCCAAATTCCCACGGAGTCACCTAGTGCAG”: 8730 fluorescence intensity (a.u.); for “CTTCCTTTCTCCCTATTGGCACCACTAGATTTGACCTTCGCGGAGTCACCTAGTGCAG”: 8400 fluorescence intensity (a.u.).
Regarding “ACTGATACGGACGTGGGCCGCTTTTGTTTGAACACTCTCACGGAGTCACCTAGTGCAG”, the binding signal is 10700 fluorescence intensity (a.u.).
For the sequence “GCAGGGCGATGGAGGTGGTGGTGGGCTTGGCCGCGGCGGCCGGAGTCACCTAGTGCAG”, the binding signal was 10400 fluorescence intensity (a.u.).
For the sequence “GATCCACCATGCCACCACCTGCTATTGCATTTAGCTTCTTCGGAGTCACCTAGTGCAG”, the binding signal is 10400 fluorescence intensity (a.u.).
With “CGATATGTGTTTATAGCTGGCTTACAGTCCGCTATTGTACCGGAGTCACCTAGTGCAG”, the binding signal was 8260 fluorescence intensity (a.u.).
